The text below walks through data of PMC10609061, “Detection of Various Traditional Chinese Medicinal Metabolites as Angiotensin-Converting Enzyme Inhibitors: Molecular Docking, Activity Testing, and Surface Plasmon Resonance Approaches” (Molecules, 2023).

Certain results were filed several times, with different values. The list is limited to them. There may be further records. Values that stand side by side do not match, cause unknown; they may come from other doses, times, organisms or constructs than stated.

In this assay the test system is ACE1 (angiotensin-converting enzyme). The assay is described as follows: ACE inhibition measurement with ACE1 activity test kit (fluorescence). To be noted: TCM metabolite at 25 uM.

As for `O=c1cc(-c2ccc(O)c(O)c2)oc2cc(O)c([C@@H]3O[C@H](CO)[C@@H](O)[C@H](O)[C@H]3O)c(O)c12` [Homoorientin], the “Inhibition rate (%) of ACE1 activity, relative to captopril taken as 100%” value was “more than 20% and 28.7%”.
